Test results reported in the supplement of paper PMC11006884.
What follows is the remainder of the data, with few or none of the targets with a hit. This is a noisy data set. The list shows a part of the results, in another mix than the full data.

By UniProt entry, the sequences of proteins in these tests, tags left out. Where a name states a change or a piece, a line headed by the entry shows the natural chain unless it says otherwise.
UniProt Q9UDR5: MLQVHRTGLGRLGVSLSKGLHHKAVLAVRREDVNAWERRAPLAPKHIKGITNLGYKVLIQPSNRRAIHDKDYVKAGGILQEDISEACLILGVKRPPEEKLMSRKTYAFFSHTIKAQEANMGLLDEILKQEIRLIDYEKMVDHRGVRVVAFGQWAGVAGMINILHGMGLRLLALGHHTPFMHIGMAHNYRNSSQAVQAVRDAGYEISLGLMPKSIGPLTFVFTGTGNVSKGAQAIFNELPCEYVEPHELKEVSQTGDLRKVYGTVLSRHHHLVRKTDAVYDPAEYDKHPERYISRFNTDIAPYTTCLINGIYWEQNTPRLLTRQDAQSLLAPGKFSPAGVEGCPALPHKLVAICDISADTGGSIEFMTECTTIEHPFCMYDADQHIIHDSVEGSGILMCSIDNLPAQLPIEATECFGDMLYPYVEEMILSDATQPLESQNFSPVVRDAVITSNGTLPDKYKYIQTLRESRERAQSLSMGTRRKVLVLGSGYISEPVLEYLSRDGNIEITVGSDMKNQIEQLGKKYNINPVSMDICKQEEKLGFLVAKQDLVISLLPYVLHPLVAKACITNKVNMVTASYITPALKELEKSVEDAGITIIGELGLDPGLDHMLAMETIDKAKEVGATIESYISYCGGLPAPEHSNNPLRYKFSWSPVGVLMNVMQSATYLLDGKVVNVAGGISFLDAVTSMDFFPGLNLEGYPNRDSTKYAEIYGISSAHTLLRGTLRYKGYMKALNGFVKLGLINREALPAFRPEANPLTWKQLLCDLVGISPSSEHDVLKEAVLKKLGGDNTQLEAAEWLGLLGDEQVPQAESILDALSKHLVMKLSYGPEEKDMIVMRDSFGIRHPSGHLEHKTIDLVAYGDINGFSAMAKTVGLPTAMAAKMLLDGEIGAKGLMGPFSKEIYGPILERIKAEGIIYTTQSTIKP
UniProt Q9P2J5: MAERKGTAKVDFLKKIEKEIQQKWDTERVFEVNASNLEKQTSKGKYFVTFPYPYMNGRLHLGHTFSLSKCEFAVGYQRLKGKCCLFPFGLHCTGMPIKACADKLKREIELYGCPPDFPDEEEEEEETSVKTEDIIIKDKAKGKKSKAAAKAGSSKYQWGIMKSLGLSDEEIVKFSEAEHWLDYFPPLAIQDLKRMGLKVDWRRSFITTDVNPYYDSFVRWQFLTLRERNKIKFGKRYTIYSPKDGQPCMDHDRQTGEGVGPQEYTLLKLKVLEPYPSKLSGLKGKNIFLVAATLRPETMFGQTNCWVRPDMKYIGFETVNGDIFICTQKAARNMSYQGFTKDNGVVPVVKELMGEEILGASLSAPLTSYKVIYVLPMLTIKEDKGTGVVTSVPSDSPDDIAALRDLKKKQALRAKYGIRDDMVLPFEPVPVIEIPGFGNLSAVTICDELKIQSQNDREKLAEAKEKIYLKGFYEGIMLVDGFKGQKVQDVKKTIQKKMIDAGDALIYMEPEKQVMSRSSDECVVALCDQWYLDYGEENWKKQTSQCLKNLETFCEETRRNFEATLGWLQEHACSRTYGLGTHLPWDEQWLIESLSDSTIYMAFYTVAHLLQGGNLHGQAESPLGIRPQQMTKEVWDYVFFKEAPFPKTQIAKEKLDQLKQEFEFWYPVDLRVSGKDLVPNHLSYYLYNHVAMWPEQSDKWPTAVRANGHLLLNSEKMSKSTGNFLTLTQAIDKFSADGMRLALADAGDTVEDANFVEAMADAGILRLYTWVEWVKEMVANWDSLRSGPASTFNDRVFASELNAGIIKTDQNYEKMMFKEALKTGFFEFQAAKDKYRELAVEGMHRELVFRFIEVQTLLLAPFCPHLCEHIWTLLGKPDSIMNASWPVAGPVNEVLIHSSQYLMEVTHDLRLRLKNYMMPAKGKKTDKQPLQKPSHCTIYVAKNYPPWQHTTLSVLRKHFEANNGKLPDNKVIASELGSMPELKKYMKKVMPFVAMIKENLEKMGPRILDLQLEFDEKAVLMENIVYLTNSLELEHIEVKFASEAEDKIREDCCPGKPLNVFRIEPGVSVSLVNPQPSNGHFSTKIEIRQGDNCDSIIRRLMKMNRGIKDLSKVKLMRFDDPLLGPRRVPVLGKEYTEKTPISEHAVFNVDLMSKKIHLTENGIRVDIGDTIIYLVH
UniProt Q9UGV2: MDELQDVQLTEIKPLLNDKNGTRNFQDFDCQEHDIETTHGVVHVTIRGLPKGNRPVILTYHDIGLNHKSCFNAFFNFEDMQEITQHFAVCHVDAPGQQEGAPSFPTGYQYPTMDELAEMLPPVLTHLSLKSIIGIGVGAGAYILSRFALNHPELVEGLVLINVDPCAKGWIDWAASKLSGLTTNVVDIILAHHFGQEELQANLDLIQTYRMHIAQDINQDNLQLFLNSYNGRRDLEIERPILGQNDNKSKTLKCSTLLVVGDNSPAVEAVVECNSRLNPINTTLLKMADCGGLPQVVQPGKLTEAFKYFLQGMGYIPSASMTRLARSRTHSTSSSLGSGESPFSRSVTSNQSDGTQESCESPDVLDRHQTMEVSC
UniProt Q9UFW8: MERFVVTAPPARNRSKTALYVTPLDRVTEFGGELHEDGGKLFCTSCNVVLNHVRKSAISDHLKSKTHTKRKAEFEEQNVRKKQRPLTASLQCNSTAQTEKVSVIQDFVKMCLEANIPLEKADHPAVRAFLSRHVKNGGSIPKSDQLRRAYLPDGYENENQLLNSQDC
UniProt Q9NZJ9: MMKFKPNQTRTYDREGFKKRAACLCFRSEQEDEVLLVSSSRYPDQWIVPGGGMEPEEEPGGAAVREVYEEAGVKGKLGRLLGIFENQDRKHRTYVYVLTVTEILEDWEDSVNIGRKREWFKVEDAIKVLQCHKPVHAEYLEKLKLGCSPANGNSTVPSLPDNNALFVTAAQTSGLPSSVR
UniProt Q9NZC3: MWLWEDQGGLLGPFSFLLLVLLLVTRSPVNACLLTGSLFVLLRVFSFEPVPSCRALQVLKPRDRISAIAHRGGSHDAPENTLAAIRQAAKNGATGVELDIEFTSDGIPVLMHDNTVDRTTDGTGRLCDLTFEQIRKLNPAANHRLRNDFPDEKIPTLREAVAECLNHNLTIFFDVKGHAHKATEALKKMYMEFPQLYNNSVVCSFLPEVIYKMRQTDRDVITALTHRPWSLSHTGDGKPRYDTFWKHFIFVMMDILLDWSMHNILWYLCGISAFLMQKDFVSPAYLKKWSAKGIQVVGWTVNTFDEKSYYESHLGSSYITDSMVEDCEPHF
UniProt Q9NYU2: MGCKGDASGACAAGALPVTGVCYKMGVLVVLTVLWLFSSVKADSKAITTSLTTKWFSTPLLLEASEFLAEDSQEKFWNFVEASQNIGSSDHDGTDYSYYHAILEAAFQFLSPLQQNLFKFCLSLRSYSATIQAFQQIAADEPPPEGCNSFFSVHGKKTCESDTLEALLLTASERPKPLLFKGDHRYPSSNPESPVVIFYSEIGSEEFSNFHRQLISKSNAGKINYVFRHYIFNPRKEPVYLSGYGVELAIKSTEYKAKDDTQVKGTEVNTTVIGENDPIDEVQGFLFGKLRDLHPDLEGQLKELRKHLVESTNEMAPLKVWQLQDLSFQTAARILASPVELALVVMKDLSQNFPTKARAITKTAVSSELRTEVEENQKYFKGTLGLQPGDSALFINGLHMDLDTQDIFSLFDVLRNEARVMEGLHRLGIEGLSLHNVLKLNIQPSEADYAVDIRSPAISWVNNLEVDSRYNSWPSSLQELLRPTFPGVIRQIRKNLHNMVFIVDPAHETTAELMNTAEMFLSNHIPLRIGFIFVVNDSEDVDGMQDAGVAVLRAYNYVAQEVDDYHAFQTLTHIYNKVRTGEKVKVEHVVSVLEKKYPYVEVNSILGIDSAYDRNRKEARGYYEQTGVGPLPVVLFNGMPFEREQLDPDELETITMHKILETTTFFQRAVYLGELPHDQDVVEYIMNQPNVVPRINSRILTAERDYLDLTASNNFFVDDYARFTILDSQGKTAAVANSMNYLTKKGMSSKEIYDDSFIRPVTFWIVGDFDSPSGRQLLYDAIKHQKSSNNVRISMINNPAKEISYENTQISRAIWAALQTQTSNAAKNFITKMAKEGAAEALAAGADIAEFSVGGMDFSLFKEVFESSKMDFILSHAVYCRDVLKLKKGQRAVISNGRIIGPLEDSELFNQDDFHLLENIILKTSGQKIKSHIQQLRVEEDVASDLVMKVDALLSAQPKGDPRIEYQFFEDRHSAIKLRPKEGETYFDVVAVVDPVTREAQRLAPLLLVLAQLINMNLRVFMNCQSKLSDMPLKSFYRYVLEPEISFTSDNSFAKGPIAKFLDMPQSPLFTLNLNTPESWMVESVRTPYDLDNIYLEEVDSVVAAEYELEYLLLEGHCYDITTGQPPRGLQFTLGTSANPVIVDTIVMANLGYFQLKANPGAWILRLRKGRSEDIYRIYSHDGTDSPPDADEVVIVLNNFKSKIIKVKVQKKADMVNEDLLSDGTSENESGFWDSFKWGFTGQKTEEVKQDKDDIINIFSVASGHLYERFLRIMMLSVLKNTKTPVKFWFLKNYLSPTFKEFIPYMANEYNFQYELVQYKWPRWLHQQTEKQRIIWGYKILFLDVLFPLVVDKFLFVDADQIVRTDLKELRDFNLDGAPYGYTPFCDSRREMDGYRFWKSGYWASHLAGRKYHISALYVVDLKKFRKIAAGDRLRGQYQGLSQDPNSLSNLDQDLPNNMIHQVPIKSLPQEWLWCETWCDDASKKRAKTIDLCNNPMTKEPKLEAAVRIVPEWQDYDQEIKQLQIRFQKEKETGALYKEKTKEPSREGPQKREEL
UniProt Q9NZL9, whole entry, looked up: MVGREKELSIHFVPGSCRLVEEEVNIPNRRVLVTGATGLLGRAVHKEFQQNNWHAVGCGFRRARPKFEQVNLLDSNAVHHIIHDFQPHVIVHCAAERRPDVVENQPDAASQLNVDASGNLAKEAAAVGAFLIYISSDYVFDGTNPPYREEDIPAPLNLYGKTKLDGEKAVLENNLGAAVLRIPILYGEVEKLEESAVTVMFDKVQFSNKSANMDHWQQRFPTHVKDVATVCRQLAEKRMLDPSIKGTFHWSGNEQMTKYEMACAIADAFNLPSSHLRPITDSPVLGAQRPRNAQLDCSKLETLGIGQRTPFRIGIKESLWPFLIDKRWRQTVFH
UniProt Q9UGR2: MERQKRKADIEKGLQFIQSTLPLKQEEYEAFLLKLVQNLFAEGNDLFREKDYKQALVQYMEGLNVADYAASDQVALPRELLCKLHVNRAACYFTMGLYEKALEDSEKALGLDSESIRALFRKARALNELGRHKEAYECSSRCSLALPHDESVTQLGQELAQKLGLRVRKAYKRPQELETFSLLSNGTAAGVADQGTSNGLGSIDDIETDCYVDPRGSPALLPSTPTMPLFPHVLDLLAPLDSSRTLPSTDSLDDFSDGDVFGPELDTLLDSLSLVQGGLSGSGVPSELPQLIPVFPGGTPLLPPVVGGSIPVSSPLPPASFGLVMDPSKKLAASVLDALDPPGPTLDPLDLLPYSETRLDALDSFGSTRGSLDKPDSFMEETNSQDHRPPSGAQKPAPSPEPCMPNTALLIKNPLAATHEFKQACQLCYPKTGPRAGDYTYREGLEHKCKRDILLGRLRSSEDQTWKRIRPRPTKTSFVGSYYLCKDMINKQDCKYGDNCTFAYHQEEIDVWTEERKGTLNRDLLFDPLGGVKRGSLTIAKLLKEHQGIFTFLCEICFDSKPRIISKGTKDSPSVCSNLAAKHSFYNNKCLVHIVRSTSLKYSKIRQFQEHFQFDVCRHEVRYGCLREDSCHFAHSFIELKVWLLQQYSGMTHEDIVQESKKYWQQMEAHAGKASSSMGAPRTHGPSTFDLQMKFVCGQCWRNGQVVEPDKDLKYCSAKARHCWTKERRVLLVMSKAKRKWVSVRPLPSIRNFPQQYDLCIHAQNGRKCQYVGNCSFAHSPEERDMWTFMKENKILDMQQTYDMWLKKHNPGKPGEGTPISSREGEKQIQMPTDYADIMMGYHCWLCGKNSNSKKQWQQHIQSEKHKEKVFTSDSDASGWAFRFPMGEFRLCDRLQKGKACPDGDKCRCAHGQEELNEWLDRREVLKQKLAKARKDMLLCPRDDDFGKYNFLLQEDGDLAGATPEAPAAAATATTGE
UniProt Q9NUQ3: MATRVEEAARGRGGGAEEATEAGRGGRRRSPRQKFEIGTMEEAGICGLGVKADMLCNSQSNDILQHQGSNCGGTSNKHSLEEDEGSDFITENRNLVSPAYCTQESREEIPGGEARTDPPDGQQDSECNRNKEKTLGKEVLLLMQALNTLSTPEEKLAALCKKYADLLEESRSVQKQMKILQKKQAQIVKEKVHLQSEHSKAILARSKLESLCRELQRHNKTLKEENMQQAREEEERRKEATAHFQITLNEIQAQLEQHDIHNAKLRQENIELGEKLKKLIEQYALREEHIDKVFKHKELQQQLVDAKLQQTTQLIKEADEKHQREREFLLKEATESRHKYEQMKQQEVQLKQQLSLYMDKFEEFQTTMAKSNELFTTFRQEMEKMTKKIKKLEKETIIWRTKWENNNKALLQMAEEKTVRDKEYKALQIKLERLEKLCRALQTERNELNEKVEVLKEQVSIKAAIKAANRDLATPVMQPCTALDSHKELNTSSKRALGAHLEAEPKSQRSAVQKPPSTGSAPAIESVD

Each target was assayed with COC(=O)/C=C/c1ccccc1 [methyl cinnamate] (assay: log2 ratio of iodoacetamide-alkyne labeling of the cysteine site, DMSO over compound (competition); higher = stronger covalent engagement of the cysteine by the compound, active = 1 or more). Conditions: 500 µM; treatment time 1 h; system: HEK293T cell lysate.
Method in brief: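 Reporter intensities give each cysteine's log2 competition ratio as the mean of control channels over the mean of compound channels. The samples were HEK293T lysate (2 mg/mL) given vehicle or electrophile (500 µM, 1 h, ambient temperature), then iodoacetamide alkyne (1 h), followed by click coupling to sCIP-TMT reagents, pooling, trypsin digestion overnight at 37 °C, streptavidin enrichment, acid elution, Orbitrap Eclipse LC-MS/MS with FAIMS and FragPipe quantification. Duplicate channels and three replicates were run, and cysteines quantified in only one replicate were discarded.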

log2 ratio of iodoacetamide-alkyne labeling, inactive:
SEC63 C295 (UniProt Q9UGP8) 0.267
RCOR3 C233 (UniProt Q9P2K3) -0.0434
DIP2B C333 (UniProt Q9P265) 0.0252
NCDN C98 (UniProt Q9UBB6) 0.301
UniProt Q9P289_C352 0.0625
AASS C87 (UniProt Q9UDR5) -0.0836
DPP3 C147 (UniProt Q9NY33) 0.135
UniProt Q9NXE8_C107 -0.242
FANCI C1209 (UniProt Q9NVI1) -0.0569
AASS C534 (UniProt Q9UDR5) 0.00927
LARS C248 (UniProt Q9P2J5) -0.108
NDRG3 C290 (UniProt Q9UGV2) -0.428
LARS C554 (UniProt Q9P2J5) 0.307
RBM27 C776 (UniProt Q9P2N5) -0.0329
CGGBP1 C167 (UniProt Q9UFW8) 0.471
MRPL39 C335 (UniProt Q9NYK5) 0.238
SRP68 C562 (UniProt Q9UHB9) -0.0333
UniProt Q9NVH0_C109 0.36
NUDT4 C147 (UniProt Q9NZJ9) 0.0285
ITSN2 C1194 (UniProt Q9NZM3) -0.0951
UniProt Q9P2P1_C1222 0.0104
MTPAP C419 (UniProt Q9NVV4) 0.246
GDE1 C127 (UniProt Q9NZC3) -0.219
RNF181 C10 (UniProt Q9P0P0) 0.144
UniProt Q9P266_C243 0.201
ABCF3 C102 (UniProt Q9NUQ8) 0.392
OGFR C417 (UniProt Q9NZT2) 0.0891
UniProt Q9UBS0_C348 -0.107
UniProt Q9NYU2_C1386 0.17
MAT2B C297 (UniProt Q9NZL9) 0.163
GMPR2 C348 (UniProt Q9P2T1) 0.121
LARS C100 (UniProt Q9P2J5) 0.317
ZC3H7B C925 (UniProt Q9UGR2) -0.249
DDX56 C298 (UniProt Q9NY93) -0.132
UniProt Q9NUQ3_C101 0.351
ATXN10 C356 (UniProt Q9UBB4) 0.437
GMIP C895 (UniProt Q9P107) 0.33

Pulled one by one from the list above (2):
log2 ratio of iodoacetamide-alkyne labeling, inactive:
UniProt Q9UBS0_C348 -0.107
UniProt Q9P266_C243 0.201
